# Assay results from PubChem BioAssay AID1487 (National Center for Advancing Translational Sciences (NCATS), 2009).
# Some of the results follow. The main result of the screen is listed elsewhere. These columns were measured beside it and carry no call. Compounds called inactive in the main read-out are mostly missing here. The note in brackets gives the kind of curve behind each potency; many fits are weak.
# Test: qHTS Assay for Modulators of Lamin A Splicing
# Conditions: HeLa LMNA splicing GFP/RFP minigene ratio, 48 h
# Method in brief: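 S3 HeLa cells stably expressing lamin A-EGFP splicing minigene plus DsRed2, 600 cells/well, 48 h compound exposure at 37C. Laser-scanning cytometry; analysed as GFP (500-530 nm)/RFP (575-640 nm) total intensity ratio; 0.5% DMSO vehicle.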
# [1] = measured here: RFP viability control channel
# [2] = measured here: GFP splicing reporter channel
Structure (SMILES),AC50 [1],AC50 [2]
Cc1ccc(C2(C)CC(C)(C)N(C(=O)CSc3nnc(C)s3)c3ccccc32)cc1 (stereo not given),"14.1 µM [rising, single point]",–
Nc1c(NCCc2ccccc2)c2ccccc2oc1=O,–,"0.00447 µM [falling, full curve, poor fit]"
Cc1cc(Br)c(Cl)cc1NC(=O)CN1C(=O)C2C3CC(c4ccccc4)C(C3)C2C1=O (stereo not given),"14.1 µM [falling, single point]","22.4 µM [falling, single point]"
Cn1c(=O)c2c(SCC(=O)NCc3ccco3)nc(-c3ccccc3F)nc2n(C)c1=O,"3.55 µM [falling, single point]","4.47 µM [falling, full curve]"
Cc1oc(-c2ccc(Cl)cc2)nc1CN1CCCC(C(=O)N2CCN(C(=O)c3ccco3)CC2)C1 (stereo not given),"11.2 µM [rising, partial curve]",–
Cc1cc(Nc2nnnn2-c2ccccc2)n(-c2ccc(Cl)cc2)n1,"20 µM [rising, partial curve]",–
CC(=O)c1ccc(N2CCN(c3ccc(S(=O)(=O)NCCCN(C)C)cc3[N+](=O)[O-])CC2)cc1,–,"25.1 µM [falling, single point]"
CC1CCN(c2nc3ccccc3nc2C(C#N)C(=O)OC2CCCCC2)CC1 (stereo not given),"14.1 µM [falling, single point]","35.5 µM [falling, single point]"
O=C(CSCc1ccc(F)cc1)N1CCN(c2ccccc2)CC1,"15.8 µM [rising, single point]","11.2 µM [rising, single point]"
O=C1c2ccsc2SCCN1Cc1ccc(Cl)cc1Cl,"20 µM [rising, single point]","12.6 µM [rising, single point]"
COCCN(CCOC)S(=O)(=O)c1ccc(C(=O)Nc2nnc(COC)o2)cc1,–,"0.00891 µM [rising, full curve, poor fit]"
Cc1ccnc(N2CCC(C(=O)Nc3cccc(C(F)(F)F)c3)CC2)n1,"14.1 µM [rising, single point]",–
COC(=O)c1c(C(=O)OC)c(-c2ccc(Cl)c(Cl)c2)n2c1CCC2,"12.6 µM [rising, partial curve, poor fit]",–
CCCc1sc(N/N=C/c2ccccn2)nc1-c1ccc(Br)cc1,"5.62 µM [rising, full curve]",–
COc1ccc(NS(=O)(=O)c2ccc3[nH]c4c(c3c2)CCCC4)c(OC)c1,"31.6 µM [rising, single point]",–
Cc1csc(SCC(=O)c2cc(C)n(Cc3cccs3)c2C)n1,"11.2 µM [rising, partial curve]","8.91 µM [rising, partial curve, poor fit]"
NC(CSSCC(N)C(=O)O)C(=O)O (stereo not given),–,"0.0178 µM [rising, full curve, poor fit]"
Cc1cccc(C(=O)NCC(c2ccc3c(c2)OCO3)N2CCOCC2)c1 (stereo not given),–,"0.02 µM [falling, full curve]"
CCc1cccc2c3c([nH]c12)C(CC)(CC(=O)O)OCC3 (stereo not given),–,"0.0501 µM [rising, full curve, poor fit]"
CCc1ccc(C2C(C(=O)Nc3ccccc3)=C(C)Nc3nc(SCC(=O)c4ccc(C)cc4)nn32)cc1 (stereo not given),–,"20 µM [rising, single point]"
O=[N+]([O-])c1ccc(Cl)cc1N1CCCC1,"35.5 µM [rising, single point]",–
CCSCCc1nnc(NC(=O)Nc2cccc(C(F)(F)F)c2)s1,"31.6 µM [rising, single point]",–
O=C(CSc1nccn1Cc1ccccc1)NC1CCCC1,–,"0.178 µM [rising, full curve, poor fit]"
O=C(NCCc1ccccc1)C(=O)NCC(c1cccnc1)N1CCN(c2ccc(F)cc2)CC1 (stereo not given),"17.8 µM [falling, partial curve, poor fit]","20 µM [falling, partial curve]"
CCC(=O)N1CCc2cc(CNC(=O)Nc3ccc(OC)cc3OC)ccc21,"10 µM [falling, partial curve, poor fit]","0.0398 µM [falling, full curve, poor fit]"
CNc1nnc(CSc2nc3ccccc3s2)s1,"14.1 µM [rising, single point]",–
Cc1cccc(Cn2c(=O)n(CCCC(=O)NCc3ccco3)c(=O)c3ccccc32)c1,"35.5 µM [rising, single point]",–
O=C(NCCCn1ccnc1)Nc1ccc(Cl)cc1Cl,"10 µM [rising, partial curve]",–

Structure (SMILES),AC50 [1],AC50 [2]
Cc1ccccc1CN1CCc2c(OCC(=O)N3CCCc4ccccc43)cccc2C1=O,"2.82 µM [rising, partial curve, poor fit]",–
COc1ccc(C)cc1-n1[nH]nnc1=S,"4.47 µM [falling, partial curve]","5.62 µM [falling, single point]"
CC(=O)C1=C(C)NC(C)=C(C(C)=O)C1c1ccc(-c2ccccc2Cl)o1,"11.2 µM [rising, single point]",–
COC(=O)c1ccccc1NC(=O)CSc1nc(-c2ccco2)cc(C(F)(F)F)n1,"5.62 µM [rising, single point]",–
O=C(Nc1cccc(-c2nnc(-c3ccccc3)o2)c1)c1ccc(Br)o1,"35.5 µM [falling, single point]","35.5 µM [falling, single point]"
COc1cccc(/C=N/NC(=O)CN2CC(c3ccccc3)CC2=O)c1O (stereo not given),"25.1 µM [rising, partial curve]","22.4 µM [rising, single point]"
CCN(CC)c1ccc2cc(-c3nc4ccccc4[nH]3)c(=O)oc2c1,"1.12 µM [falling, partial curve]","2.24 µM [falling, full curve, poor fit]"
Cc1nn(C)cc1/C=N/NC(=S)Nc1ccc(Cl)cc1Cl,"6.31 µM [falling, single point]",–
CCn1c(O)c(N=NC(=O)CNC(=O)c2ccco2)c2ccccc21,"10 µM [rising, partial curve]",–
C/C=C(/C)C(=O)O[C@@H]1c2c(ccc3ccc(=O)oc23)OC(C)(C)[C@@H]1OC(=O)/C(C)=C\C,"35.5 µM [rising, single point]",–
O=C(NNS(=O)(=O)c1ccc(F)cc1)c1sccc1-n1cccc1,"25.1 µM [rising, single point]",–
COc1ccc(NC(=O)CSc2nc3[nH]ncc3c(=O)n2-c2ccccc2C)cc1OC,–,"8.91 µM [rising, partial curve, poor fit]"
COc1ccc(Oc2ncc3nc(-c4cn(C)c5ccccc45)c(=O)n(C4CC4)c3n2)cc1,"14.1 µM [falling, partial curve]","17.8 µM [falling, partial curve, poor fit]"
COC(=O)c1cc(NC(=O)c2sc3ncn(Cc4cccc(F)c4)c(=O)c3c2C)cc(C(=O)OC)c1,"35.5 µM [falling, partial curve, poor fit]","0.891 µM [falling, full curve, poor fit]"
CSc1nc(N)c2ncn([C@@H]3O[C@H](COP(=O)(O)OP(=O)(O)O)[C@H](O)[C@H]3O)c2n1,"0.00501 µM [falling, full curve, poor fit]",–
CC(=O)c1ccc(NC(=O)Nc2ccc([N+](=O)[O-])cc2)cc1,"12.6 µM [rising, single point]",–
CC(=O)Oc1ccc(/C=N/NC(=O)CCSc2ccccc2)cc1,–,"35.5 µM [falling, single point]"
Cc1ccoc1C(=O)NCCNc1ccc(Cl)cc1[N+](=O)[O-],–,"10 µM [rising, partial curve]"
CC(C)n1cc(/C=C2/NC(=O)N(c3cccc(Cl)c3)C2=O)c2ccccc21,"20 µM [rising, single point]",–
Cc1ccc(-c2n[nH]c(=O)c3ccccc23)cc1N,"20 µM [rising, single point]","22.4 µM [rising, single point]"
COC(=O)c1cc(=O)n(-c2ccc(F)cc2)c(=Nc2ccc(F)cc2)s1,"0.0251 µM [rising, full curve, poor fit]",–
NS(=O)(=O)c1cc2c(cc1Cl)N[C@@H](C(Cl)Cl)NS2(=O)=O,"0.447 µM [rising, full curve]","0.00282 µM [falling, full curve, poor fit]"
COC(=O)c1ccc(C#Cc2ccccc2)o1,"0.0631 µM [falling, full curve, poor fit]","1.12 µM [falling, full curve]"
CCOc1cc(N2CCOCC2)c(OCC)cc1NC(=O)Cn1[nH]c(=O)c2ccccc2c1=O,"3.98 µM [rising, single point]","4.47 µM [rising, single point]"
Cc1ccc(NC(=O)Nc2cccs2)c(Cl)c1,"10 µM [rising, partial curve]","3.98 µM [rising, full curve]"
Cc1csc(=Nc2cccnc2)n1CC1CCCCC1,"31.6 µM [rising, single point]","35.5 µM [rising, single point]"
COc1ccccc1N/C(=N/S(=O)(=O)c1ccc(C)cc1)c1ccccc1,–,"11.2 µM [rising, single point]"

# A different layout for some results above.
Structure (SMILES)	AC50 [1]	AC50 [2]
Cc1nn(C)cc1/C=N/NC(=S)Nc1ccc(Cl)cc1Cl	6.31 µM [falling, single point]	–
CCn1c(O)c(N=NC(=O)CNC(=O)c2ccco2)c2ccccc21	10 µM [rising, partial curve]	–
C/C=C(/C)C(=O)O[C@@H]1c2c(ccc3ccc(=O)oc23)OC(C)(C)[C@@H]1OC(=O)/C(C)=C\C	35.5 µM [rising, single point]	–
O=C(NNS(=O)(=O)c1ccc(F)cc1)c1sccc1-n1cccc1	25.1 µM [rising, single point]	–
COc1ccc(NC(=O)CSc2nc3[nH]ncc3c(=O)n2-c2ccccc2C)cc1OC	–	8.91 µM [rising, partial curve, poor fit]
COc1ccc(Oc2ncc3nc(-c4cn(C)c5ccccc45)c(=O)n(C4CC4)c3n2)cc1	14.1 µM [falling, partial curve]	17.8 µM [falling, partial curve, poor fit]
COC(=O)c1cc(NC(=O)c2sc3ncn(Cc4cccc(F)c4)c(=O)c3c2C)cc(C(=O)OC)c1	35.5 µM [falling, partial curve, poor fit]	0.891 µM [falling, full curve, poor fit]
CSc1nc(N)c2ncn([C@@H]3O[C@H](COP(=O)(O)OP(=O)(O)O)[C@H](O)[C@H]3O)c2n1	0.00501 µM [falling, full curve, poor fit]	–
CC(=O)c1ccc(NC(=O)Nc2ccc([N+](=O)[O-])cc2)cc1	12.6 µM [rising, single point]	–
CC(=O)Oc1ccc(/C=N/NC(=O)CCSc2ccccc2)cc1	–	35.5 µM [falling, single point]
Cc1ccoc1C(=O)NCCNc1ccc(Cl)cc1[N+](=O)[O-]	–	10 µM [rising, partial curve]
CC(C)n1cc(/C=C2/NC(=O)N(c3cccc(Cl)c3)C2=O)c2ccccc21	20 µM [rising, single point]	–
Cc1ccc(-c2n[nH]c(=O)c3ccccc23)cc1N	20 µM [rising, single point]	22.4 µM [rising, single point]
COC(=O)c1cc(=O)n(-c2ccc(F)cc2)c(=Nc2ccc(F)cc2)s1	0.0251 µM [rising, full curve, poor fit]	–
NS(=O)(=O)c1cc2c(cc1Cl)N[C@@H](C(Cl)Cl)NS2(=O)=O	0.447 µM [rising, full curve]	0.00282 µM [falling, full curve, poor fit]
